Here are results for one substance from paper PMC12397353.

Chains of the proteins cited; added tags and fusions are not shown. Residues count along the entry.
UniProt Q63604, residues 32-821: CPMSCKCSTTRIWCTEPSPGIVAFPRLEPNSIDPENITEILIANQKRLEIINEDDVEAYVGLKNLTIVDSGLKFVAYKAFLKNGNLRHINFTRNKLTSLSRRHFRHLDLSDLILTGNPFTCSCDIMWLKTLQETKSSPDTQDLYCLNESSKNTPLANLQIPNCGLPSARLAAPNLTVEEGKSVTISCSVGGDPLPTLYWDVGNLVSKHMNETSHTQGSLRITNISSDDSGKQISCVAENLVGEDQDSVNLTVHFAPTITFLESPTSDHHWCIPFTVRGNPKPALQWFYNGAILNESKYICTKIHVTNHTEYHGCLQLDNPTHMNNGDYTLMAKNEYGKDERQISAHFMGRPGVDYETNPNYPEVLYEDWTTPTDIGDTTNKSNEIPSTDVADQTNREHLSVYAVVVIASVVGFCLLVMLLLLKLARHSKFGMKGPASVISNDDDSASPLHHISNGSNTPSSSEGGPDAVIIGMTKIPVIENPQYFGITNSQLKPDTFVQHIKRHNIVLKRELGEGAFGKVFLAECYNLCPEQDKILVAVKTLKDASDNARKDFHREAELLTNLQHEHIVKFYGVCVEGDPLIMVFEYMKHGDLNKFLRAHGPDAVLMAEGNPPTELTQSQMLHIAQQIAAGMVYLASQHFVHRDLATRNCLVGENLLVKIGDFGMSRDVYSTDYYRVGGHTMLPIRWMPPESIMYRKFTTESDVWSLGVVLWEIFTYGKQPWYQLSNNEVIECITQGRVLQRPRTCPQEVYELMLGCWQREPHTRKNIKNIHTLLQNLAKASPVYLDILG
UniProt Q9JJ50: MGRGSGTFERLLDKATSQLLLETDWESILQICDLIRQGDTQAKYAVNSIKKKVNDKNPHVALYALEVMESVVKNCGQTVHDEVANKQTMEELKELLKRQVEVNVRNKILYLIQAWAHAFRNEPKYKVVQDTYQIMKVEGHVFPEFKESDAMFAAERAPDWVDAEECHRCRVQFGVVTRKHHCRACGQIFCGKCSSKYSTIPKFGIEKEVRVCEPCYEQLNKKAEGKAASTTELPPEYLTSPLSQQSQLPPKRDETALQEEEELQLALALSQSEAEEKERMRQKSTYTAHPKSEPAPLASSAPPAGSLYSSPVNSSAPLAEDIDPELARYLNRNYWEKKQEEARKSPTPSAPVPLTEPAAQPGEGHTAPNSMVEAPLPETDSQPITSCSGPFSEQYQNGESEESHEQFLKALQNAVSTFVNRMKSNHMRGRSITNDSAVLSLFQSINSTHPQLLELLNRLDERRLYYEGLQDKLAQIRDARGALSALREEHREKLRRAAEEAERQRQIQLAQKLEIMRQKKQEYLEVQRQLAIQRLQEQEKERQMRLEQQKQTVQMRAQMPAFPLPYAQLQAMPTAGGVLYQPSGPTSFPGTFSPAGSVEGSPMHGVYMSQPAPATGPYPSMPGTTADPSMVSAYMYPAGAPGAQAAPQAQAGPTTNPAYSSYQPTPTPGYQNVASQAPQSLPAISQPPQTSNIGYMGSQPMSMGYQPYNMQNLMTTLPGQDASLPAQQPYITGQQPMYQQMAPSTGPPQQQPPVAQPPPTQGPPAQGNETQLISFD

These are yes or no findings as the source states them, for the method shown. Binding seen in cells or lysates may run through a third protein. Some entries that bind do so weakly or less than the wild type.

The target in this test is full-length tropomyosin-related kinase B receptor (TrkB-FL) (rat (endogenous in primary cortical cultures)) (UniProt Q63604). Put plainly: co-IP; immunoprecipitation with the generic TrkB antibody panTrkB from lysates of rat cortical cultures (1% NP-40, 80 mM NaCl, 20 mM EDTA, 20 mM Tris-HCl pH 8), Protein G agarose; blot for TrkB-FL Ct and Hrs; cultures treated with NMDA or BDNF.

In the case of “hepatocyte growth factor-regulated tyrosine kinase substrate (Hrs) (from UniProt Q9JJ50 1-776)”, the binding entry is reported as “binds”.
